PubChem BioAssay AID1259254 – NCATS – 2017

Purpose: 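Gene knock-downs that lead to re-replication, shown by excess G2 DNA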 (primary screen)
System: human HCT116 colorectal cancer cells
Reagent: single siRNA against human genes
Timing: 3 days
Detection: 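Nuclei stained with Hoechst and imaged; cell-cycle phase assigned by DNA content; G2 share scaled per plate, non-targeting siRNA 0%, GMNN siRNA 100%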
Scale: G2 robust z-score and G2 cells, % of GMNN control: higher = more G2 cells, more excess DNA replication; raw share of cells in G2: higher = larger share of cells with G2 DNA content
Hit rule: 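An siRNA counts as active if its G2 robust z-score lies at least 5 MADs above the screen median; here such calls match roughly 38% of GMNN control or more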
The deposit covers about 59,000 reagents; this is an unselected part. About 1,550 of them (2.6%) count as active. 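G2 share is only a proxy for re-replication; each gene was hit by three separate siRNAs, and active genes were retested.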 Raw values vary from plate to plate and are shown uncorrected. Reagents against one gene are numbered here. Not given: the amount of reagent.

gene knocked down	reagent no.	G2 robust z-score	G2 cells, % of GMNN control	raw share of cells in G2 (%)	outcome
KIF21B	1	-0.203	1.54	4.67	inactive
KIF21B	2	-0.218	1.43	6.94	inactive
KIF21B	3	-0.611	-1.33	3.41	inactive
TRIM35	1	1.73	15.1	9.22	inactive
TRIM35	2	2.5	20.6	14.6	inactive
TRIM35	3	2.31	19.3	10.5	inactive
GADL1	1	-0.832	-2.89	3.23	inactive
GADL1	2	1.51	13.6	11.8	inactive
GADL1	3	1.83	15.9	11.2	inactive
CFAP45	1	3.41	27	14.5	inactive
CFAP45	2	0.228	4.57	5.92	inactive
CFAP45	3	1.92	16.5	9.06	inactive
NOCT	1	0.334	5.32	5.95	inactive
NOCT	2	1.09	10.6	7.47	inactive
NOCT	3	1.31	12.2	11.7	inactive
LOC642677	1	0.69	7.82	6.64	inactive
LOC642677	2	-0.377	0.318	3.54	inactive
LOC642677	3	-0.321	0.706	3.36	inactive

Records listed so far whose target name begins with G or g:
gene knocked down	reagent no.	G2 robust z-score	G2 cells, % of GMNN control	raw share of cells in G2 (%)	outcome
GADL1	1	-0.832	-2.89	3.23	inactive
GADL1	2	1.51	13.6	11.8	inactive
GADL1	3	1.83	15.9	11.2	inactive

Next reagents follow:
gene knocked down	reagent no.	G2 robust z-score	G2 cells, % of GMNN control	raw share of cells in G2 (%)	outcome
RNF26	1	-0.225	1.39	4.84	inactive
RNF26	2	-0.463	-0.292	5.53	inactive
RNF26	3	2.93	23.6	12.8	inactive
PLA2G4C	1	1.14	11	9.12	inactive
PLA2G4C	2	0.695	7.86	8.11	inactive
PLA2G4C	3	-0.513	-0.643	4.48	inactive
SPDYE7P	1	-0.741	-2.24	2.57	inactive
SPDYE7P	2	-0.13	2.05	3.82	inactive
SPDYE7P	3	0.951	9.66	7.35	inactive
PSMC1	1	3.13	25	13.6	inactive
PSMC1	2	0.329	5.28	6.7	inactive
PSMC1	3	1.45	13.1	8.51	inactive
